Measured values: article PMC5727073
These are yes or no findings as the source states them, for the method shown. In cells and extracts the contact can be indirect. Some entries that bind do so weakly or less than the wild type. Tags and fused reporters may be left off the sequences shown.

Amino acid sequences for entries named in this document (tags omitted). Residues count along the entry.
UniProt P63165, residues 1-97: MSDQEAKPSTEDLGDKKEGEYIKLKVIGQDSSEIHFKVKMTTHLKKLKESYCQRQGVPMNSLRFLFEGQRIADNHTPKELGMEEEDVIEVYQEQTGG

Molecular target: T1, Atac2-V5 (Mus musculus) (UniProt Q8CID0)
T1 sequence: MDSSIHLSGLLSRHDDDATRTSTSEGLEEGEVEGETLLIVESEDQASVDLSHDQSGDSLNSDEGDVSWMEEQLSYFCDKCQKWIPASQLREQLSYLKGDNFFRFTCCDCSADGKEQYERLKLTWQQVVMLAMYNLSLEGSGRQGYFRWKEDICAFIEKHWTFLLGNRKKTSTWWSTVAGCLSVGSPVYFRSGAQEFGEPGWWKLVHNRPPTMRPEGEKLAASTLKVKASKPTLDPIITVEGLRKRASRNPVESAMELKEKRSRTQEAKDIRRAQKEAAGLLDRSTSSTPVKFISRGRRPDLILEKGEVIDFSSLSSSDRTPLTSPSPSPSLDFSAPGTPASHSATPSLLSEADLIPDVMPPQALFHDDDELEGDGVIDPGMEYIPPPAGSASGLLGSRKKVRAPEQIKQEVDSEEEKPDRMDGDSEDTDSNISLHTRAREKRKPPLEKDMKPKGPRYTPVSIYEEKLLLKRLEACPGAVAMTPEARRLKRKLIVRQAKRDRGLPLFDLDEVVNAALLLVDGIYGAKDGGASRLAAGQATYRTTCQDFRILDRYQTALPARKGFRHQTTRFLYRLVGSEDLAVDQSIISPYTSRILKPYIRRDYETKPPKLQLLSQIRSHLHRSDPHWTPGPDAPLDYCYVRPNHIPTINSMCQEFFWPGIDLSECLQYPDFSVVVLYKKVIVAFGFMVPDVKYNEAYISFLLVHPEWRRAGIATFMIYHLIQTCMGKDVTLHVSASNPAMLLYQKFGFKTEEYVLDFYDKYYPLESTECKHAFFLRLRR
Experiment: co-IP; NIH3T3 lysates (NP-40 lysis buffer with 20 mM N-ethylmaleimide), immunoprecipitation of tagged Atac2 (anti-V5), denatured, SDS-PAGE and Western blot with anti-V5 and anti-Myc; SUMO seen in upshifted bands (covalent conjugate)

## Myc-SUMO1 (from UniProt P63165 1-97)
  binding: binds

## Venus-Myc-SUMO1 (from UniProt P63165 1-97)
  binding: binds
